Measurements: article doi:10.1101/2025.03.29.646082
Negatives hold for the conditions tested. At least one verdict rests on a figure or table, not on a statement of the authors.

The chains behind the UniProt entries cited, without tags or fusion partners. Residues count along the entry.
UniProt P02647, 25-267: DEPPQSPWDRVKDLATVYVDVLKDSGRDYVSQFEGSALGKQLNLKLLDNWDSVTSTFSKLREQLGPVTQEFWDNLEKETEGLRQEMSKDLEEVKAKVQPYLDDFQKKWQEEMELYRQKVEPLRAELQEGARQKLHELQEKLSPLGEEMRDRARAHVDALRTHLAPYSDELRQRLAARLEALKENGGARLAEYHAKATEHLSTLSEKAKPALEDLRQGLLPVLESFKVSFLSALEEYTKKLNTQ

Target: ApoA1 in HDL particles (UniProt P02647)
Experiment: pull-down on aptamer mesh
Settings: (V)LDL + HDL mixture, uncaptured HDL passed through; 3'-C6-NH2

“ACCTCGATTTTATATTATTTCGCTTACCAACAACTGCAGA [ApoB-100 aptamer]”: no binding.
